Data from article PMC10611619 (European Journal of Nuclear Medicine and Molecular Imaging, 2023).

Assay: general procedure: hybrid (solid and solution phase) peptide synthesis; 2-Chlorotrityl chloride (2-CTC) resin; HOBt/TBTU with DIPEA; HOAt/HATU
Settings: conjugation step, sequence written open

HYNIC-L6-CPCR4
conjugation yield (based on L6-CPCR4, head-to-tail ring): 3.4% | difficulty met (head-to-tail ring): formation of trifluoroacetyl-HYNIC as a side product during the last deprotection step limited the yield
